{"source": "PubChem BioAssay AID743454 (Peter MacCallum Cancer Centre, 2014)", "aim": "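Knock-downs lowering viability or raising caspase 3/7 activity in vorinostat-treated resistant cells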 (primary screen)", "cells": "human HCT116-VR colon cancer cells, selected for vorinostat resistance", "reagents": "siRNA pool against human genes, 40 nM siRNA pool", "timing": "vorinostat for 24 h, read-out about 72 h after transfection", "conditions": "vorinostat at 2.5 µM final", "read-out": "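Cell viability by CellTiter-Fluor and caspase 3/7 activity by luminescence, each scaled to mock wells per plate, duplicates averaged, then robust z-scored over all plates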", "scale": "viability robust z-score: higher = more viable cells than screen typical; caspase robust z-score: higher = more caspase 3/7 activity than screen typical", "hit rule": "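Hits are knock-downs in viability class RV1/RV2 or caspase class CA1/CA2, excluding ones that killed cells in the no-drug cell-count arm; hits then retested with single siRNAs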", "note": "Shown is a random part of about 18,000 reagents. Over the whole deposit, 450 (2.5%) are marked active. 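Single biological run; no consistent viability z cut-off exists, so the class columns, not z-scores, define the calls.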 Entries without a mark were called inactive."}
{"gene symbol": "SLC25A39", "viability hit class": "no change", "caspase hit class": "no change", "viability robust z-score": -0.87, "caspase robust z-score": 2.02}
{"gene symbol": "CCR10", "viability hit class": "no change", "caspase hit class": "no change", "viability robust z-score": 0.18, "caspase robust z-score": -1.1}
{"gene symbol": "PRMT5", "viability hit class": "no change", "caspase hit class": "no change", "viability robust z-score": 0.98, "caspase robust z-score": -0.66}
{"gene symbol": "VN1R2", "viability hit class": "no change", "caspase hit class": "no change", "viability robust z-score": 0.74, "caspase robust z-score": -0.64}
{"gene symbol": "CPN2", "viability hit class": "no change", "caspase hit class": "no change", "viability robust z-score": -0.36, "caspase robust z-score": -0.02}
{"gene symbol": "CD300C", "viability hit class": "no change", "caspase hit class": "no change", "viability robust z-score": -1.4, "caspase robust z-score": 1.08}
{"gene symbol": "HRH3", "viability hit class": "no change", "caspase hit class": "no change", "viability robust z-score": 0.44, "caspase robust z-score": 2.76}
{"gene symbol": "DQX1", "viability hit class": "no change", "caspase hit class": "no change", "viability robust z-score": 0.42, "caspase robust z-score": 0.29}

No new results follow: an excerpt of the list.
{"gene symbol": "CD300C", "viability hit class": "no change", "caspase hit class": "no change", "viability robust z-score": -1.4, "caspase robust z-score": 1.08}
{"gene symbol": "HRH3", "viability hit class": "no change", "caspase hit class": "no change", "viability robust z-score": 0.44, "caspase robust z-score": 2.76}

The list goes on.
{"gene symbol": "ZNF613", "viability hit class": "no change", "caspase hit class": "no change", "viability robust z-score": 0.77, "caspase robust z-score": 0.69}
{"gene symbol": "FAM135A", "viability hit class": "no change", "caspase hit class": "no change", "viability robust z-score": 0.38, "caspase robust z-score": -0.81}
{"gene symbol": "TAFA3", "viability hit class": "no change", "caspase hit class": "no change", "viability robust z-score": -0.59, "caspase robust z-score": -0.25}
{"gene symbol": "BNIP3L", "viability hit class": "no change", "caspase hit class": "no change", "viability robust z-score": 1.39, "caspase robust z-score": 3.06}
{"gene symbol": "MTF1", "viability hit class": "no change", "caspase hit class": "no change", "viability robust z-score": -1.12, "caspase robust z-score": 0.94}
{"gene symbol": "GIMAP4", "viability hit class": "no change", "caspase hit class": "no change", "viability robust z-score": -0.22, "caspase robust z-score": 0.54}
